Data published in the supplement of paper PMC10849652.
The other results are listed elsewhere or left out.

Amino acid sequences for entries named in this document (tags omitted). A change or cut given only in a name is not applied to a line headed by its entry.
UniProt O15439: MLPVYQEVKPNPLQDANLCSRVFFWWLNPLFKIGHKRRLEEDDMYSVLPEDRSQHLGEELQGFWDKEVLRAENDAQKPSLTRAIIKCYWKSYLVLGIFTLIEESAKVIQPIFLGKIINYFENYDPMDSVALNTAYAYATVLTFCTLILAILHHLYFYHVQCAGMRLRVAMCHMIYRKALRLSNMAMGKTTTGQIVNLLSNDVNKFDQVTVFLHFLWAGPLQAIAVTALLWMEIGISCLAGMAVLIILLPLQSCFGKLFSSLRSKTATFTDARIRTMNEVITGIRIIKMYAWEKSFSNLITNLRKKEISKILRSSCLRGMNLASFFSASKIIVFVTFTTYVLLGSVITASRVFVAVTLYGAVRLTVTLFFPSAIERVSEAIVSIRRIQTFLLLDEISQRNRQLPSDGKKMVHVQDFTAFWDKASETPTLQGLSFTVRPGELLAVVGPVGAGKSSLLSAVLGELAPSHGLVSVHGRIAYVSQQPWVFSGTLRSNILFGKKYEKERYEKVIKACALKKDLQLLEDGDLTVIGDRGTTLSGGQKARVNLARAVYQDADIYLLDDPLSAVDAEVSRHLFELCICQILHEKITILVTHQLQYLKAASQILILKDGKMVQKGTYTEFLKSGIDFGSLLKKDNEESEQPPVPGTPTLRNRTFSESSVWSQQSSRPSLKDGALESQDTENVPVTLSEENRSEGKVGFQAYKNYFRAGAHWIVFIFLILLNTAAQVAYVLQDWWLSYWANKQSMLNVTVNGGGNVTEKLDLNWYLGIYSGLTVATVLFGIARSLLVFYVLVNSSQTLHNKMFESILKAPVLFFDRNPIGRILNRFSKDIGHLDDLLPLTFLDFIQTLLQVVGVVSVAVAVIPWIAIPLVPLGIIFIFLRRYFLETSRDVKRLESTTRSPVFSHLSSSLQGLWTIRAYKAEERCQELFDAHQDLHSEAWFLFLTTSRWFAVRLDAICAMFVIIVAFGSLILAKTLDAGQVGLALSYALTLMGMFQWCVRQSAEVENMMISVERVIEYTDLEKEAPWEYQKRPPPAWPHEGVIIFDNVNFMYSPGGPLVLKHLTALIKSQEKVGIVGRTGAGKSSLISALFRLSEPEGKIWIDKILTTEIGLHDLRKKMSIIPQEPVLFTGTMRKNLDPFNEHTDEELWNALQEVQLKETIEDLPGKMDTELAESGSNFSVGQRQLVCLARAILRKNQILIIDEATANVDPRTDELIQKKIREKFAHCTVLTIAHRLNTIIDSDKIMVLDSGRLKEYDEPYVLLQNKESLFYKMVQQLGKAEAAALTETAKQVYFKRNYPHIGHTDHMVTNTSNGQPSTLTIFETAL
UniProt Q9H3P7: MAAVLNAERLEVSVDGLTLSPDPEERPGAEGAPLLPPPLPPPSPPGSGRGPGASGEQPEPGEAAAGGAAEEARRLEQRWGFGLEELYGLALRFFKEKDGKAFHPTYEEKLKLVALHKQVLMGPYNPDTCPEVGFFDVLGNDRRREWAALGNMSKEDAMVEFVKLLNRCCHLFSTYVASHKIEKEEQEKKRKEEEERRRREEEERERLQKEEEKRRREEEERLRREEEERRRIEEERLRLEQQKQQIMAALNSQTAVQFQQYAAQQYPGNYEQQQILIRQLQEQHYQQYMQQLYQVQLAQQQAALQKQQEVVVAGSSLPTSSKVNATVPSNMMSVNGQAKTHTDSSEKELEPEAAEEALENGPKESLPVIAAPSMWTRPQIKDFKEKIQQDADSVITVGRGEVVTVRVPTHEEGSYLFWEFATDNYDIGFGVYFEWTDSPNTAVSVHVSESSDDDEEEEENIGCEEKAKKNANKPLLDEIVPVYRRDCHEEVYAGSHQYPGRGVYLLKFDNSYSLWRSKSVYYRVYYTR
UniProt Q9UKV3: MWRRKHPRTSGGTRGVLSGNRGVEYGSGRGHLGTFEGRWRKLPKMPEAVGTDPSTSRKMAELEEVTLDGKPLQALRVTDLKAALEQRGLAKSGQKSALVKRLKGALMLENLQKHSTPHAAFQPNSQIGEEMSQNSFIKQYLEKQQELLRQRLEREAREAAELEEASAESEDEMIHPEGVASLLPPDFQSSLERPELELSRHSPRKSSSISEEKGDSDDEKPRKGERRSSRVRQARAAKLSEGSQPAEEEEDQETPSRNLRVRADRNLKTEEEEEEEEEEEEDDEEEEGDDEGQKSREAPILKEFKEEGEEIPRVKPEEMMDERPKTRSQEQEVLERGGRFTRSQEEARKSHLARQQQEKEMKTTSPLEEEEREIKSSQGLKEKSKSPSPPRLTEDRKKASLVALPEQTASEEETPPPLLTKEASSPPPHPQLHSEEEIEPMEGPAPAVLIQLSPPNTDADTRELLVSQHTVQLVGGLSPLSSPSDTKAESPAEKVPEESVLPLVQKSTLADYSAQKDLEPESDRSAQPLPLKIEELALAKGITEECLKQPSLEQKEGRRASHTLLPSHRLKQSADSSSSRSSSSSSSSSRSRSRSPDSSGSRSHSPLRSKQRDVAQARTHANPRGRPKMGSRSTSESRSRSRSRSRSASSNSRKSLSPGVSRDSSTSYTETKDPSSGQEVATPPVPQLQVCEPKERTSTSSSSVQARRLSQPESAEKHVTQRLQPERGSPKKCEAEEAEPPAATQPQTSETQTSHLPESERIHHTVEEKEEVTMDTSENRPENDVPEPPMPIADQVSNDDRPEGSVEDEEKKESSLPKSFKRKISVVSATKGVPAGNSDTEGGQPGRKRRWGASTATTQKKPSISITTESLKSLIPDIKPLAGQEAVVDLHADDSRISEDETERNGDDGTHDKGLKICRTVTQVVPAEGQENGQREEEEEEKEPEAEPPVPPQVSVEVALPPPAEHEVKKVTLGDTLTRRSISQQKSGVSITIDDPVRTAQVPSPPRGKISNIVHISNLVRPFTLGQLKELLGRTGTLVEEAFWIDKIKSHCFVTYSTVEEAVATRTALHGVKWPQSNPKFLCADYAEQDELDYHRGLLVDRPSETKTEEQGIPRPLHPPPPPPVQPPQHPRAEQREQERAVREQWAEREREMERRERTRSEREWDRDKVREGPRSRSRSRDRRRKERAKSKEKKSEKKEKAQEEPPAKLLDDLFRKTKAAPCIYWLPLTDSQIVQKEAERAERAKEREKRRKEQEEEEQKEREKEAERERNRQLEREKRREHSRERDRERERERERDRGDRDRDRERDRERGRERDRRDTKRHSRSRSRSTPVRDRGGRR
UniProt Q9NUJ1: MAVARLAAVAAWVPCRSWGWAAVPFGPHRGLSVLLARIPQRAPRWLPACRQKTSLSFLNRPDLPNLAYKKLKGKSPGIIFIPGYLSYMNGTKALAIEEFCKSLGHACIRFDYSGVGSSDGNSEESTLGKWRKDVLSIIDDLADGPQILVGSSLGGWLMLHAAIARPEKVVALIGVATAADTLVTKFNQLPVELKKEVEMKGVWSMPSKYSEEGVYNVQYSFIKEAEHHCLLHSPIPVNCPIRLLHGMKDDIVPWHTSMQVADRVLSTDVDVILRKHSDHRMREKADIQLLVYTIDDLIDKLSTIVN
UniProt P21399: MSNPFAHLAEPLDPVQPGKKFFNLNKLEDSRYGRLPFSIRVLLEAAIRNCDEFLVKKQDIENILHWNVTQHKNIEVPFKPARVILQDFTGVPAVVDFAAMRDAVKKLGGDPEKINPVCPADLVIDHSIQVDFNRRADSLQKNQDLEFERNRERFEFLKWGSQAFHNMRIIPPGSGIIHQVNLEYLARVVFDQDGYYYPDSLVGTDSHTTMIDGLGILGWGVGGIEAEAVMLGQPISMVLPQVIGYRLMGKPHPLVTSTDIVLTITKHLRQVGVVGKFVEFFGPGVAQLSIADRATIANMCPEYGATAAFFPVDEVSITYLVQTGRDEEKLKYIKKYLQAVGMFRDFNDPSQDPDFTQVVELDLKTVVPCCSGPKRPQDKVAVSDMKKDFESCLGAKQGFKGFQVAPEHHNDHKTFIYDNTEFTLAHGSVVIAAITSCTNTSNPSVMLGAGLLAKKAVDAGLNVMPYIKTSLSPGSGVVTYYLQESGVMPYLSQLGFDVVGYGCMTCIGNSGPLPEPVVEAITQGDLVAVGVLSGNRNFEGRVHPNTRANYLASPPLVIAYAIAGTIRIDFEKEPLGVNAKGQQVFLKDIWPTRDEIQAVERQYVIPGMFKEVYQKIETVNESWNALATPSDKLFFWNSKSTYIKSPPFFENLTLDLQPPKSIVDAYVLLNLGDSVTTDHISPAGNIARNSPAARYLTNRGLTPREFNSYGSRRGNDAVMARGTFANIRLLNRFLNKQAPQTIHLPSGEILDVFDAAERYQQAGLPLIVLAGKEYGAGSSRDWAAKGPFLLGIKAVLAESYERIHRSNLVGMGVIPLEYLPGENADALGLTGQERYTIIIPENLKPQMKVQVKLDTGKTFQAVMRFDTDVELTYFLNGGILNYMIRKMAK
UniProt P16219: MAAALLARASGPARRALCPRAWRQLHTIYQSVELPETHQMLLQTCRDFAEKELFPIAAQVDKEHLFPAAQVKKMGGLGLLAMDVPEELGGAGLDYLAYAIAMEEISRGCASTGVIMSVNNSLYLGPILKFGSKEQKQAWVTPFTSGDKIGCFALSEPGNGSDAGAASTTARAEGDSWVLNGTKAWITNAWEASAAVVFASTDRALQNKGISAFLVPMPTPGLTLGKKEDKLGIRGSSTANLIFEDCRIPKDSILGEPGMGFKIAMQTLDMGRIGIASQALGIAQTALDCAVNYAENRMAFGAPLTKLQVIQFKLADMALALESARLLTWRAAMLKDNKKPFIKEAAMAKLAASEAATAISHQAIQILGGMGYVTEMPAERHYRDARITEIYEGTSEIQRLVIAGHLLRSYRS
UniProt Q9BR61: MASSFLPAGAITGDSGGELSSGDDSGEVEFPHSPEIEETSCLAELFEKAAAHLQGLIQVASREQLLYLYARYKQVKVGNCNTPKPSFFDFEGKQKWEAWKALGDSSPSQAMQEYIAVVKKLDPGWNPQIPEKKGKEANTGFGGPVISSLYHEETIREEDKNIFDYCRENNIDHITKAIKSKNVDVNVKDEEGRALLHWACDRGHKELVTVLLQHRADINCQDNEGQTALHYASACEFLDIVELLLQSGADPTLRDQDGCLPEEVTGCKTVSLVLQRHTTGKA
UniProt Q8NE71: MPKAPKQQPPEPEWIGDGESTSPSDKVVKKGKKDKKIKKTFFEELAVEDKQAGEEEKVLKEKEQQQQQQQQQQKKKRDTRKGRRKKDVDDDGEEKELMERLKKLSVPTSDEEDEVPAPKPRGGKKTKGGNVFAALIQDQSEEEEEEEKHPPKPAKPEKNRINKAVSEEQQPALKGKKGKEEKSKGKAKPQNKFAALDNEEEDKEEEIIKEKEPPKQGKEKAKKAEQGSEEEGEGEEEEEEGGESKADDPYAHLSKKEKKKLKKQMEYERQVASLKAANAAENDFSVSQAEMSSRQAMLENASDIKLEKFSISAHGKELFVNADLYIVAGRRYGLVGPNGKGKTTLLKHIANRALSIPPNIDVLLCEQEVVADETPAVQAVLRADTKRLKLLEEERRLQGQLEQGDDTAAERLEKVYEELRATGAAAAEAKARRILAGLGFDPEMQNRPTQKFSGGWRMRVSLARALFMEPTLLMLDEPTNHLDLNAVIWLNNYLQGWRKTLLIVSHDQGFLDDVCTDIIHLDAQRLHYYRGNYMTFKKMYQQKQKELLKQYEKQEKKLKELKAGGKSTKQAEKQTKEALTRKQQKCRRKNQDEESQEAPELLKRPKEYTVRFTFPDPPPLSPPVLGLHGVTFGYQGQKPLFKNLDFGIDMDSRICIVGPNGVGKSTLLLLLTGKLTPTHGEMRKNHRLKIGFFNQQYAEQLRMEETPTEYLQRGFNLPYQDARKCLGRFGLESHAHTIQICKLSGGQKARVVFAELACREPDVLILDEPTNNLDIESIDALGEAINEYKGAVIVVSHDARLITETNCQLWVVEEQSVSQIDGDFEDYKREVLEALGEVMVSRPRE
UniProt O95870: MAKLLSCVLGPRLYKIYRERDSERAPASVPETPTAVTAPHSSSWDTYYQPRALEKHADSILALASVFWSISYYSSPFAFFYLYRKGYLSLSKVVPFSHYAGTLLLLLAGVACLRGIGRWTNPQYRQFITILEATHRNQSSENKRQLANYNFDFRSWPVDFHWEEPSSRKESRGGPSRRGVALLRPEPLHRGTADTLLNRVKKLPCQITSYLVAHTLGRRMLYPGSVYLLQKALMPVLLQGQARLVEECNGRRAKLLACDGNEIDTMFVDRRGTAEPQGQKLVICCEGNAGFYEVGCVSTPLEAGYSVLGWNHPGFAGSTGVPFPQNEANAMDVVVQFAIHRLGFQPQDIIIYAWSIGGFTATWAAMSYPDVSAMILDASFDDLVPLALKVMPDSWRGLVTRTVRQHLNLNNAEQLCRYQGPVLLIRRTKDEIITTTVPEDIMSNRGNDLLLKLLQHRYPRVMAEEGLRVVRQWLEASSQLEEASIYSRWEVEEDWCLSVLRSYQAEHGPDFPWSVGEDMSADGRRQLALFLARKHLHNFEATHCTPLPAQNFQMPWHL

Each target was assayed with C1=CC=C(C=C1)C2=NC(=C(N2)C3=CC=NC=C3)C4=CC(=C(C=C4)Cl)O (assay: log2 fold change, soluble protein after heating vs DMSO (PISA); higher = thermal stabilisation; K562 lysate, 10 uM; active = over 0.2 and 3.5 SD of the protein, either way, in both replicates (recomputed)).
Outline: (§1)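 A 30 min treatment with 10 μM compound was applied to crude K562 extract at 1 mg/mL protein in PBS pH 7.4 with 1 mM MgCl2. Heating for 3 min spanned 48°C-58°C, after which aliquots were pooled, adjusted to 0.5% NP-40 at 4°C and spun at 21,000xg for 90 min. TMTpro 16plex LC-MS/MS of the supernatant, with channel sums equalised, gave values recorded as log-two fold change in thermal stability against solvent controls, from duplicates.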

log2 fold change, inactive:
ACADVL isoform 3 (UniProt P49748) -0.045
ABCC4 (UniProt O15439) -0.009
ABCD3 (UniProt P28288) -0.075
ABRAXAS2 (UniProt Q15018) 0.014
ACBD3 (UniProt Q9H3P7) 0.009
ACIN1 isoform 5 (UniProt Q9UKV3) 0.001
A2M (UniProt P01023) 0.03
AARS (UniProt P49588) -0.008
ABI1 isoform 9 (UniProt Q8IZP0) 0.009
AATF (UniProt Q9NY61) -0.019
AAGAB (UniProt Q6PD74) -0.006
A0A096LPI6, A0A096LPI6 0.009
ABCB10 (UniProt Q9NRK6) -0.034
ABHD10 (UniProt Q9NUJ1) 0.012
ABHD17A isoform 2 (UniProt Q96GS6) -0.009
ABT1 (UniProt Q9ULW3) 0.002
ACO1 (UniProt P21399) -0.001
ACADS (UniProt P16219) 0.001
ACBD6 (UniProt Q9BR61) -0.014
ABCF1 (UniProt Q8NE71) 0.015
ABHD16A (UniProt O95870) 0.015
AARSD1 isoform 3 (UniProt Q9BTE6) -0.002

These targets were tested with C1=CC=C2C(=C1)C3=NNC4=CC=CC(=C43)C2=O in the same assay as above.
Outline: as §1

log2 fold change, inactive:
AAK1, A0A096LP25 0.304
AAMDC (UniProt Q9H7C9) 0.01
ACIN1 (UniProt E7EQT4) -0.009
ACCS (UniProt Q96QU6) -0.078
A0A0B4J2A0, A0A0B4J2A0 -0.061
ABL1 isoform 2 (UniProt P00519) -0.022
ABITRAM (UniProt Q9NX38) -0.072
AACS (UniProt Q86V21) -0.053
ABCF2 isoform 2 (UniProt Q9UG63) -0.042
ACACA isoform 4 (UniProt Q13085) -0.047
ABCB7 isoform 2 (UniProt O75027) 0.024
ACADVL isoform 3 (UniProt P49748) -0.053
ABCC4 (UniProt O15439) -0.046
ABCD3 (UniProt P28288) -0.031
ABRAXAS2 (UniProt Q15018) 0.06
ACBD3 (UniProt Q9H3P7) -0.036
ACIN1 isoform 5 (UniProt Q9UKV3) -0.001
A2M (UniProt P01023) -0.064
AARS (UniProt P49588) -0.003
ABI1 isoform 9 (UniProt Q8IZP0) -0.014
AATF (UniProt Q9NY61) -0.018
AAGAB (UniProt Q6PD74) -0.018
A0A096LPI6, A0A096LPI6 0.016
ABCB10 (UniProt Q9NRK6) 0.001
ABHD10 (UniProt Q9NUJ1) -0.007
ABHD17A isoform 2 (UniProt Q96GS6) -0.07
ABT1 (UniProt Q9ULW3) -0.131
ACO1 (UniProt P21399) -0.01
ACADS (UniProt P16219) -0.046
ACBD6 (UniProt Q9BR61) -0.075
ABCF1 (UniProt Q8NE71) 0.003
ABHD16A (UniProt O95870) -0.016
AARSD1 isoform 3 (UniProt Q9BTE6) -0.017

The targets below were run with C1CCN(C1)C(=O)NC2=CC=CC(=C2)NC3=NC=C(C(=N3)NCCC4=CN=CN4)Br in the same assay as above.
Outline: as §1

log2 fold change, inactive:
AAK1, A0A096LP25 0.356
AAMDC (UniProt Q9H7C9) 0
ACIN1 (UniProt E7EQT4) 0.008
ACCS (UniProt Q96QU6) -0.04
A0A0B4J2A0, A0A0B4J2A0 -0.011
ABL1 isoform 2 (UniProt P00519) -0.035
ABITRAM (UniProt Q9NX38) -0.003
AACS (UniProt Q86V21) -0.039
ABCF2 isoform 2 (UniProt Q9UG63) 0.049
ACACA isoform 4 (UniProt Q13085) 0.003
ABCB7 isoform 2 (UniProt O75027) -0.002
ACADVL isoform 3 (UniProt P49748) -0.039
ABCC4 (UniProt O15439) -0.001
ABCD3 (UniProt P28288) -0.084
ABRAXAS2 (UniProt Q15018) 0.01
ACBD3 (UniProt Q9H3P7) -0.016
ACIN1 isoform 5 (UniProt Q9UKV3) -0.006
A2M (UniProt P01023) 0.039
AARS (UniProt P49588) 0.005
ABI1 isoform 9 (UniProt Q8IZP0) 0.006
AATF (UniProt Q9NY61) 0.08
AAGAB (UniProt Q6PD74) -0.007
A0A096LPI6, A0A096LPI6 0.005
ABCB10 (UniProt Q9NRK6) -0.036
ABHD10 (UniProt Q9NUJ1) -0.031
ABHD17A isoform 2 (UniProt Q96GS6) -0.023
ABT1 (UniProt Q9ULW3) -0.072
ACO1 (UniProt P21399) -0.005
ACADS (UniProt P16219) 0.01
ACBD6 (UniProt Q9BR61) -0.044
ABCF1 (UniProt Q8NE71) 0.009
ABHD16A (UniProt O95870) 0.014
AARSD1 isoform 3 (UniProt Q9BTE6) -0.007
